According to the supplement of paper PMC10849652:
The list shows a part of the results.

Protein sequences, listed by entry. Tags and fused reporters are not part of them. Lines headed by an entry give the natural chain unless they say otherwise; changes in a name come on top.
UniProt Q8WU79: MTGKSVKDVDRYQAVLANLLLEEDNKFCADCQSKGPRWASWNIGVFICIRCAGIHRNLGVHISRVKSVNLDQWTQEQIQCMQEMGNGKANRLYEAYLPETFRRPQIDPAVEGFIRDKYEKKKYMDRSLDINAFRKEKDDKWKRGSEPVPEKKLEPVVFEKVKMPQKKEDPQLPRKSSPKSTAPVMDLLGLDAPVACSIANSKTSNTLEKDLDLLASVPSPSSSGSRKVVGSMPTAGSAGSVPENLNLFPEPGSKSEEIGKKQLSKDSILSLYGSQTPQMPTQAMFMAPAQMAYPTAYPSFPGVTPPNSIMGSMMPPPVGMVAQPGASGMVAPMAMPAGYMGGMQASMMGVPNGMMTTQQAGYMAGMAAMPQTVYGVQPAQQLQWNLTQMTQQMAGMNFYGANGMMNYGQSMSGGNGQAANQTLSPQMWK
UniProt O75643, whole entry, looked up: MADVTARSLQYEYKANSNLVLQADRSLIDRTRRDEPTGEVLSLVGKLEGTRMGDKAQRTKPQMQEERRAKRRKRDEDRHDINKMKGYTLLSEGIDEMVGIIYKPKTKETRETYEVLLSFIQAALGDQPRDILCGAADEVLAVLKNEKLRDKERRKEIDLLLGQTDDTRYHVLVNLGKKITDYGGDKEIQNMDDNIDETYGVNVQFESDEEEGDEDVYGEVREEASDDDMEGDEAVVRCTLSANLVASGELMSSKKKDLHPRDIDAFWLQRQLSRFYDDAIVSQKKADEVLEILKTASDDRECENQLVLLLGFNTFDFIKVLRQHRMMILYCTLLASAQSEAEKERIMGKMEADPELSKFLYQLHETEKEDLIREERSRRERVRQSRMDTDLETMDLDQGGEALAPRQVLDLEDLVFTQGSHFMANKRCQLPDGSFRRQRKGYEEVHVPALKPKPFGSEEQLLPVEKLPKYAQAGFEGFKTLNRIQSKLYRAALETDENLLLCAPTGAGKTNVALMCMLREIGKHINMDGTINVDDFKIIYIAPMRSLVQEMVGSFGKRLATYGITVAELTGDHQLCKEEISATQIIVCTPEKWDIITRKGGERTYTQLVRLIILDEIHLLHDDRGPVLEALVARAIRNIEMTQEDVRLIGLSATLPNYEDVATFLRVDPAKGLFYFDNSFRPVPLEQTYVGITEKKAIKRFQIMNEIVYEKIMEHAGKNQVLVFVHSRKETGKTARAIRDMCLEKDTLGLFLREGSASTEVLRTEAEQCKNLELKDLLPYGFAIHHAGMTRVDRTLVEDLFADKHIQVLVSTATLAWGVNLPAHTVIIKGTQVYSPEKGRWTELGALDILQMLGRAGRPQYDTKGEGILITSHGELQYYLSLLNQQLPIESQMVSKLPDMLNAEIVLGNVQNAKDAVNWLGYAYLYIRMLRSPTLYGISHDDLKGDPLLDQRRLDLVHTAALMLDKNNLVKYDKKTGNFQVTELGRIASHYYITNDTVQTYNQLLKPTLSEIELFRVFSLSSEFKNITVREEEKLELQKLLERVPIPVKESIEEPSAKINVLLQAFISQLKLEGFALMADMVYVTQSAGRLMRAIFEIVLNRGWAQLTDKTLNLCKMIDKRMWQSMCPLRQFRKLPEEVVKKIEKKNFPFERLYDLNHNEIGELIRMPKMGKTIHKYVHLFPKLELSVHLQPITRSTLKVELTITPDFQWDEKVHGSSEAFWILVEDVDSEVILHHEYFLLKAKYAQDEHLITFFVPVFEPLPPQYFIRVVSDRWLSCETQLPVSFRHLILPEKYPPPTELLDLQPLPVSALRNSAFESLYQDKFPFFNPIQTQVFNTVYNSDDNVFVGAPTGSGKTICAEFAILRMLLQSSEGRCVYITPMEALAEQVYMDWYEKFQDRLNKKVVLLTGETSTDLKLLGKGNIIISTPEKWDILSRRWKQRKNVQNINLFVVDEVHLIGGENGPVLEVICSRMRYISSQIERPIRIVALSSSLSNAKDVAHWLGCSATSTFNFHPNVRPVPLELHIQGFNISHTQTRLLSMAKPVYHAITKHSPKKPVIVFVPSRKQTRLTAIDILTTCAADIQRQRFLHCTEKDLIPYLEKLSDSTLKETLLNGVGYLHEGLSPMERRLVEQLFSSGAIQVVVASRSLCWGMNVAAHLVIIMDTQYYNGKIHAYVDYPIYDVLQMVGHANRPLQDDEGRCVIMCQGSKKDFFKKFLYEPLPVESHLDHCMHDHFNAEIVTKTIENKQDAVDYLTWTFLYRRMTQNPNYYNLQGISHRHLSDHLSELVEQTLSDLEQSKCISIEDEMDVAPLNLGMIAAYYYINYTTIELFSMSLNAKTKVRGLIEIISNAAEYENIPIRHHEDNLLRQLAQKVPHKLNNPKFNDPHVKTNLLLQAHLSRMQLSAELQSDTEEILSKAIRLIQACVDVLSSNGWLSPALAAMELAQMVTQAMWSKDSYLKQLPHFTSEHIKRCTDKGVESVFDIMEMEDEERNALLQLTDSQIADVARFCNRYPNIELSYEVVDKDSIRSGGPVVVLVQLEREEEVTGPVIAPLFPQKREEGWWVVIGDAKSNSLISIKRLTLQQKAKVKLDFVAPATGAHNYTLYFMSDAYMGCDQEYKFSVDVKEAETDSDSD
UniProt Q15036: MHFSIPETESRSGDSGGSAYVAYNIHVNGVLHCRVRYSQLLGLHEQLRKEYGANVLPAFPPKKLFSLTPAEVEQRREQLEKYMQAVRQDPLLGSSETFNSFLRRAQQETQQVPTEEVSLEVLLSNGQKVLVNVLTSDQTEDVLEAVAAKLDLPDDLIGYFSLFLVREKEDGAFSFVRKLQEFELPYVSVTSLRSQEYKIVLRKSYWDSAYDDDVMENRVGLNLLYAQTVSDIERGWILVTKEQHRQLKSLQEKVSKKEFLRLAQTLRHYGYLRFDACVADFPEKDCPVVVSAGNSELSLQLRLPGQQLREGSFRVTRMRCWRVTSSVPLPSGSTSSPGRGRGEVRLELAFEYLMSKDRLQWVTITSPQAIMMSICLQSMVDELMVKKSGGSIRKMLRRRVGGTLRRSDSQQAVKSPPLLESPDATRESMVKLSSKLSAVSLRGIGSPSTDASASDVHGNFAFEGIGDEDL
UniProt O00161: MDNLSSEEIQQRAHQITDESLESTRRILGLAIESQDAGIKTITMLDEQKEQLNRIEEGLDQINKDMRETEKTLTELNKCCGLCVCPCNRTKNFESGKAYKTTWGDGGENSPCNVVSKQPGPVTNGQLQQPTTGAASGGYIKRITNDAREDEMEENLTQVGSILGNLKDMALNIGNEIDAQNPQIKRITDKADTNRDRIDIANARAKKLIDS
UniProt P62304, whole entry, looked up: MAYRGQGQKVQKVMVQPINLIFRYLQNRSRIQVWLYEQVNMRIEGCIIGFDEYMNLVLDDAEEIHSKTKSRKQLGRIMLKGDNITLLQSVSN
UniProt Q96DI7: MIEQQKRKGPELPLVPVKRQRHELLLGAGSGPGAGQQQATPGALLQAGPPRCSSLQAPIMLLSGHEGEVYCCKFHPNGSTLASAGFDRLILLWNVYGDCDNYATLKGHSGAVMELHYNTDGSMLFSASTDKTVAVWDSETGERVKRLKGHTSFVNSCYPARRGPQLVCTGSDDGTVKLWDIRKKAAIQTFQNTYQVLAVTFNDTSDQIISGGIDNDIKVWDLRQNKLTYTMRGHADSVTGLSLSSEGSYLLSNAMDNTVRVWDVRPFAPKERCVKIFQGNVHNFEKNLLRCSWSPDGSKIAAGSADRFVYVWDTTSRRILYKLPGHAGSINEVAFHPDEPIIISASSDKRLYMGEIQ
UniProt Q8NDV3: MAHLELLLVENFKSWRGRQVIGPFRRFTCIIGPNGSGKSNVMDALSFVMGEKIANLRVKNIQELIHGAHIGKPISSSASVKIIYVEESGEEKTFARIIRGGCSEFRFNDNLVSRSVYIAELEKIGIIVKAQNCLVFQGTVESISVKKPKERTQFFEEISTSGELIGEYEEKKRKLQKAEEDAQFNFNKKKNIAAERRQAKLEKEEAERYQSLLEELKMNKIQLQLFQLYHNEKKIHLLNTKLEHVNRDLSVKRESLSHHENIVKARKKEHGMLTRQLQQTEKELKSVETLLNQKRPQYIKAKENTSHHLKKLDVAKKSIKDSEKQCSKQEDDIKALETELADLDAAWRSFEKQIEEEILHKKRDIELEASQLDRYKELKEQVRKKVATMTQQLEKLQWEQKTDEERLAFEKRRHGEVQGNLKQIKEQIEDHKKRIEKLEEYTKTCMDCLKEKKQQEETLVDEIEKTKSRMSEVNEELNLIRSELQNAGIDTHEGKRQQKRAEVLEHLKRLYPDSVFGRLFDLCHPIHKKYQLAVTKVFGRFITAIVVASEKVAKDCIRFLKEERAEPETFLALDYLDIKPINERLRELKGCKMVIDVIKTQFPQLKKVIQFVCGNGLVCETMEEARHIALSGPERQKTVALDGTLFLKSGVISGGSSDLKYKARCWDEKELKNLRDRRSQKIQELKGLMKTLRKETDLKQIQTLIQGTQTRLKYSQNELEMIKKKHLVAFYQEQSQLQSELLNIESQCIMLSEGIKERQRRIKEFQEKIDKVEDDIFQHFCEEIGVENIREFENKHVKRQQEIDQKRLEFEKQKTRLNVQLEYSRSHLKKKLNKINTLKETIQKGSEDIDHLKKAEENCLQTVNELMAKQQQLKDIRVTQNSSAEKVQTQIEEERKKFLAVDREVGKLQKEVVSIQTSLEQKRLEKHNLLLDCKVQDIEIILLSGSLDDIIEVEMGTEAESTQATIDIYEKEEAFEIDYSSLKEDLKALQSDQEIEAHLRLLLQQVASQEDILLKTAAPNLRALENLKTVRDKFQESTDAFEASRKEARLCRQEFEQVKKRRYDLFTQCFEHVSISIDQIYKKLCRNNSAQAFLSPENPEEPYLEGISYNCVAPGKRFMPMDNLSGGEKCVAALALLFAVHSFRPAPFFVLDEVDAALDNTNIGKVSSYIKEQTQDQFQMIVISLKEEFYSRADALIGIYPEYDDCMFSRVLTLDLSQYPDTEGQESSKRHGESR
UniProt P09234, whole entry, looked up: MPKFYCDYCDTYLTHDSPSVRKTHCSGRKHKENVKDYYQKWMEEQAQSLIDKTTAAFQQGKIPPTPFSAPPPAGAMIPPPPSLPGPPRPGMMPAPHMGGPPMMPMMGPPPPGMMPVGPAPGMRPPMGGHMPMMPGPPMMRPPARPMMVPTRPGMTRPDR
UniProt Q9Y5X3: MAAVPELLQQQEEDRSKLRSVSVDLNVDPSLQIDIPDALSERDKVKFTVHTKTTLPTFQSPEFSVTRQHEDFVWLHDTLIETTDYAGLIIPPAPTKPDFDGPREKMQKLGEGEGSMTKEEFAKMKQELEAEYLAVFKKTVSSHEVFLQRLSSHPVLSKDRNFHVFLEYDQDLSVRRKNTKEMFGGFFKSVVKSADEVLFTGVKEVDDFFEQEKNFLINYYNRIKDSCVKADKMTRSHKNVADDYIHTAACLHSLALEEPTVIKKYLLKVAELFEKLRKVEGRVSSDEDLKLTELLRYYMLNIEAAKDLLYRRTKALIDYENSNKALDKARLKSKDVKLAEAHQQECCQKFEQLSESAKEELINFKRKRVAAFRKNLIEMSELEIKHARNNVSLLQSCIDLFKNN
UniProt Q92922, whole entry, looked up: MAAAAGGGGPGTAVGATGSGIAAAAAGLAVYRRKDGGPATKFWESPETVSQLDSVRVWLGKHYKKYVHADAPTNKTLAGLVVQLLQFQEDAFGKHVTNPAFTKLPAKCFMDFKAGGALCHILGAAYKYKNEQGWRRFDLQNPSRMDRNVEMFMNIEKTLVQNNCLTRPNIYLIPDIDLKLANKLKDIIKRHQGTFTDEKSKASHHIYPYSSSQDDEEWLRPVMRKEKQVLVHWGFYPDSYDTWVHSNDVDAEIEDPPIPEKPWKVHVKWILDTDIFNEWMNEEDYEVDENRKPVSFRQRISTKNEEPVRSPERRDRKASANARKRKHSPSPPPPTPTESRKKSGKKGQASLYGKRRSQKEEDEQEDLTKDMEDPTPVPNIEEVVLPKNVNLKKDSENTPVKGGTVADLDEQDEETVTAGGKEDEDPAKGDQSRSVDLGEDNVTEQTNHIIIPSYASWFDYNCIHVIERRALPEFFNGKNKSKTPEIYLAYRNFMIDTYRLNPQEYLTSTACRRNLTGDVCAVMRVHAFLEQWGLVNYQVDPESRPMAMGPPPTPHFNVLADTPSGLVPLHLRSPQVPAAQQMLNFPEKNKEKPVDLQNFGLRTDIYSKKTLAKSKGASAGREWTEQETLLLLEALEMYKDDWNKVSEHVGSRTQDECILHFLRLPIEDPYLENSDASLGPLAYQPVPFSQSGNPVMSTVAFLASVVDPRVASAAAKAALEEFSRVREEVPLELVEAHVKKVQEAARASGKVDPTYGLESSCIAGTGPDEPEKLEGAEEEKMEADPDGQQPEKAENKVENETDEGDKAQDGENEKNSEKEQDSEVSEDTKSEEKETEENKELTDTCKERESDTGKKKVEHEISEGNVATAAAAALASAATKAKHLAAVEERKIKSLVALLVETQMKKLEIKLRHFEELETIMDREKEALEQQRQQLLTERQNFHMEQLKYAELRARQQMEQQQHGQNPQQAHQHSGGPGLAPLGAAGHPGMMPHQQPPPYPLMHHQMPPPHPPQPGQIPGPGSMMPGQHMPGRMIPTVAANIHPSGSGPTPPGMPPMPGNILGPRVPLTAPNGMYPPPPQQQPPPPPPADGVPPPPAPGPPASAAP

How the values were obtained:
Assay in all cases: log2 fold change, soluble protein after heating vs DMSO (PISA); higher = thermal stabilisation; K562 cells, 10 uM, 30 min; active = over 0.2 and 3.5 SD of the protein, either way, in both replicates (recomputed)
bafetinib = compound: Cc1ccc(NC(=O)c2ccc(CN3CC[C@H](N(C)C)C3)c(C(F)(F)F)c2)cc1Nc1nccc(-c2cncnc2)n1 [bafetinib]
In short: (§1)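 Thermal stability values are relative to control samples and come from duplicates. They are expressed as log2 fold changes. For measurement, K562 cells (2×10^6 cells/mL) received 10 μM compound for 30 min, and aliquots were heated for 3 min over 48°C-58°C, pooled, and extracted at 4°C in PBS with 0.5% NP-40. Soluble protein, the supernatant after 21,000xg for 90 min, was quantified by TMTpro 16plex LC-MS/MS with equalised channel sums.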

[1] = compound: Cc1cccc(CC(=O)N2CCc3c2ccc(-c2cn(C)c4ncnc(N)c24)c3F)n1
In short: as §1

nilotinib = compound: Cc1cn(-c2cc(NC(=O)c3ccc(C)c(Nc4nccc(-c5cccnc5)n4)c3)cc(C(F)(F)F)c2)cn1 [nilotinib]
In short: as §1

[2] = compound: Cc1nc(Nc2n[nH]c3c2CN(C(=O)N[C@H](CN(C)C)c2ccccc2)C3(C)C)c2sccc2n1
In short: as §1

dasatinib = compound: Cc1nc(Nc2ncc(C(=O)Nc3c(C)cccc3Cl)s2)cc(N2CCN(CCO)CC2)n1 [dasatinib]
In short: as §1

[3] = compound: Cc1ncc(-c2ccnc(Nc3ccc(S(C)(=O)=O)cc3)n2)n1C(C)C
In short: as §1

[4] = compound: Cn1cc(-c2ccc3c(c2)CCN3C(=O)Cc2cccc(C(F)(F)F)c2)c2c(N)ncnc21
In short: as §1

[5] = compound: Cn1cc(-c2ccc3nnc(C(F)(F)c4ccc5ncccc5c4)n3n2)cn1
In short: as §1

tipifarnib = compound: Cn1cncc1[C@@](N)(c1ccc(Cl)cc1)c1ccc2c(c1)c(-c1cccc(Cl)c1)cc(=O)n2C [tipifarnib]
In short: as §1

mubritinib = compound: FC(F)(F)c1ccc(/C=C/c2nc(COc3ccc(CCCCn4ccnn4)cc3)co2)cc1 [mubritinib]
In short: as §1

Target | log2 fold change (bafetinib) | log2 fold change [1] | log2 fold change (nilotinib) | log2 fold change [2] | log2 fold change (dasatinib) | log2 fold change [3] | log2 fold change [4] | log2 fold change [5] | log2 fold change (tipifarnib) | log2 fold change (mubritinib)
SMAP2 (UniProt Q8WU79) | inactive: 0.01 | inactive: -0.025 | inactive: -0.078 | inactive: -0.039 | inactive: -0.135 | inactive: 0.044 | inactive: -0.022 | inactive: -0.004 | inactive: -0.014 | inactive: 0.018
SNRNP200 (UniProt O75643) | inactive: 0.087 | inactive: 0.002 | inactive: 0.199 | inactive: 0.148 | inactive: 0.03 | inactive: 0.073 | inactive: -0.087 | inactive: -0.091 | inactive: 0 | inactive: 0.09
SNTA1 (UniProt Q13424) | inactive: -0.145 | inactive: 0.072 | inactive: 0.112 | inactive: -0.018 | inactive: -0.072 | inactive: -0.098 | inactive: -0.067 | inactive: -0.072 | inactive: -0.07 | inactive: 0.006
SMG8 isoform 2 (UniProt Q8ND04) | inactive: 0.091 | inactive: 0.096 | inactive: -0.001 | inactive: -0.028 | inactive: -0.013 | inactive: -0.031 | inactive: -0.033 | inactive: 0.012 | inactive: -0.023 | 
SNX15 (UniProt Q9NRS6) | inactive: 0.036 | inactive: 0.154 | inactive: -0.064 | inactive: -0.17 | inactive: 0.206 | inactive: 0.002 | inactive: -0.046 | inactive: 0.086 | inactive: 0.067 | inactive: -0.063
SNX17 (UniProt Q15036) | inactive: 0.128 | inactive: -0.031 | inactive: -0.116 | inactive: 0.129 | inactive: -0.106 | inactive: -0.039 | inactive: 0.114 | inactive: -0.02 | inactive: 0.013 | 
SNX2 (UniProt O60749) | inactive: -0.153 | inactive: 0.088 | inactive: -0.168 | inactive: 0 | inactive: -0.134 | inactive: -0.275 | inactive: 0.101 | inactive: 0.021 | inactive: -0.056 | inactive: 0.044
SMPD2 (UniProt O60906) | inactive: -0.095 | inactive: 0.024 | inactive: 0.031 | inactive: -0.087 | inactive: -0.071 | inactive: -0.109 | inactive: 0.024 | inactive: 0.04 | inactive: -0.128 | inactive: 0.05
SOD1 (UniProt P00441) | inactive: -0.003 | inactive: -0.033 | inactive: -0.008 | inactive: -0.002 | inactive: 0.017 | inactive: 0.008 | inactive: -0.067 | inactive: 0.03 | inactive: -0.002 | inactive: 0.04
SNTB2 (UniProt Q13425) | inactive: 0.097 | inactive: -0.061 | inactive: -0.032 | inactive: -0.094 | inactive: -0.029 | inactive: -0.068 | inactive: 0.096 | inactive: 0.043 | inactive: 0.077 | 
SMPD4 isoform 4 (UniProt Q9NXE4) | inactive: -0.031 | inactive: 0.122 | inactive: -0.1 | inactive: -0.076 | inactive: -0.037 | inactive: 0.025 | inactive: 0.098 | inactive: 0.04 | inactive: -0.016 | inactive: 0.148
SOAT1 (UniProt P35610) | inactive: 0.085 | inactive: 0.011 | active: 0.566 | inactive: -0.001 | inactive: 0.257 | inactive: -0.021 | inactive: 0.031 | inactive: -0.058 | inactive: 0.039 | inactive: 0.096
SMG7 isoform 4 (UniProt Q92540) | inactive: -0.116 | inactive: 0.087 | inactive: -0.005 | inactive: -0.008 | inactive: -0.03 | inactive: -0.036 | inactive: -0.164 | inactive: -0.117 | inactive: 0.096 | 
SLC9A6 isoform 2 (UniProt Q92581) | inactive: -0.049 | inactive: 0.012 | inactive: 0.039 | inactive: 0.011 | inactive: 0.017 | inactive: -0.002 | inactive: -0.019 | inactive: 0.026 | inactive: 0.047 | inactive: 0.033
SNAP23 (UniProt O00161) | inactive: -0.019 | inactive: -0.012 | inactive: 0.023 | inactive: -0.016 | inactive: 0.055 | inactive: -0.021 | inactive: -0.013 | inactive: 0.007 | inactive: 0.025 | inactive: -0.016
SMIM12 (UniProt Q96EX1) | inactive: -0.155 | inactive: -0.025 | inactive: 0.03 | inactive: -0.018 | inactive: -0.012 | inactive: -0.004 | inactive: 0.162 | inactive: 0.077 | inactive: 0.024 | inactive: 0.072
SNX3 (UniProt O60493) | inactive: 0.01 | inactive: 0.032 | inactive: -0.034 | inactive: 0.035 | inactive: -0.163 | active: -0.339 | inactive: -0.03 | inactive: 0.001 | inactive: 0.019 | inactive: -0.108
SNRPE (UniProt P62304) | inactive: -0.02 | inactive: -0.03 | inactive: -0.009 | inactive: -0.02 | inactive: 0.084 | inactive: 0.032 | inactive: -0.029 | inactive: -0.002 | inactive: 0.026 | inactive: 0.006
SMU1 isoform 2 (UniProt Q2TAY7) | inactive: 0.185 |  |  |  |  |  |  |  |  | 
SNRNP40 (UniProt Q96DI7) | inactive: 0.018 | inactive: -0.023 | inactive: 0.054 | inactive: 0.166 | inactive: 0.1 | inactive: 0.119 | inactive: -0.051 | inactive: -0.021 | inactive: 0.038 | inactive: 0.006
SMC1B isoform 3 (UniProt Q8NDV3) | inactive: -0.126 | inactive: 0.011 | inactive: 0.03 | inactive: 0.04 | inactive: -0.048 | inactive: -0.081 | inactive: -0.042 | inactive: 0.035 | inactive: 0 | inactive: 0.062
SMAD2 (UniProt Q15796) | inactive: -0.019 | inactive: -0.037 | inactive: -0.085 | inactive: -0.123 | inactive: -0.13 | inactive: -0.14 | inactive: 0.023 | inactive: 0.057 | inactive: 0.012 | inactive: 0.022
SMCHD1 (UniProt A6NHR9) | inactive: 0.306 | inactive: 0 | inactive: 0.037 | inactive: -0.011 | inactive: -0.319 | inactive: -0.044 | inactive: -0.061 | inactive: -0.084 | inactive: -0.003 | inactive: -0.136
SNRPC (UniProt P09234) | inactive: -0.002 | inactive: 0.044 | inactive: 0.061 | inactive: 0.016 | inactive: 0.184 | inactive: 0.029 | inactive: -0.085 | inactive: 0.029 | inactive: 0.061 | inactive: -0.009
SNX5 (UniProt Q9Y5X3) | inactive: -0.154 | inactive: 0.11 | inactive: -0.078 | inactive: 0.006 | inactive: -0.169 | inactive: -0.314 | inactive: 0.05 | inactive: 0.001 | inactive: -0.027 | inactive: 0.082
SMC4 (UniProt Q9NTJ3) | inactive: 0.012 | inactive: 0.008 | inactive: -0.054 | inactive: -0.045 | inactive: -0.101 | inactive: 0.065 | inactive: -0.017 | inactive: 0.011 | inactive: -0.053 | inactive: -0.018
SLIRP (UniProt Q9GZT3) | inactive: -0.156 | inactive: -0.099 | inactive: 0.118 | inactive: -0.027 | inactive: -0.134 | inactive: -0.073 | inactive: 0.131 | inactive: 0.075 | inactive: 0.031 | inactive: -0.044
SMARCC1 (UniProt Q92922) | inactive: -0.003 | inactive: 0.03 | inactive: -0.137 | inactive: 0.106 | inactive: -0.125 | inactive: 0.014 | inactive: -0.005 | inactive: 0.07 | inactive: -0.093 | inactive: 0.12

Reformatted in markdown: entries from further up

| Target | log2 fold change (bafetinib) | log2 fold change [1] | log2 fold change (nilotinib) | log2 fold change [2] | log2 fold change (dasatinib) | log2 fold change [3] | log2 fold change [4] | log2 fold change [5] | log2 fold change (tipifarnib) | log2 fold change (mubritinib) |
| --- | --- | --- | --- | --- | --- | --- | --- | --- | --- | --- |
| SOD1 (UniProt P00441) | inactive: -0.003 | inactive: -0.033 | inactive: -0.008 | inactive: -0.002 | inactive: 0.017 | inactive: 0.008 | inactive: -0.067 | inactive: 0.03 | inactive: -0.002 | inactive: 0.04 |
| SNTB2 (UniProt Q13425) | inactive: 0.097 | inactive: -0.061 | inactive: -0.032 | inactive: -0.094 | inactive: -0.029 | inactive: -0.068 | inactive: 0.096 | inactive: 0.043 | inactive: 0.077 |  |
